These are yes or no findings as the source states them, for the method shown. Some binding calls cover weakened binding; strength is not graded here.
How the values were obtained:
human PDGF-BB (human) [1] = biological target: human PDGF-BB (human) (UniProt P01127); test: SPR sequential binding, MOR8457-mIgG1 captured first
rat PDGF-BB (rat) [2] = biological target: rat PDGF-BB (rat) (UniProt Q05028); test: SPR (Biacore), antibody captured on anti-mouse IgG on a CM5 chip, ratBB injected at 0.25, 0.5 and 1 nM for 2 min, 10 min dissociation
human PDGF-AB (human) [3] = biological target: human PDGF-AB (human) (UniProt P04085); test: SPR (Biacore), antibody captured on anti-mouse IgG on a CM5 chip, huAB injected at 0.25, 0.5 and 1 nM for 2 min, 10 min dissociation
human PDGF-BB (human) [4] = biological target: human PDGF-BB (human) (UniProt P01127); test: SPR sequential binding, MOR8457-mIgG1 captured via anti-mouse IgG
mouse PDGF-BB (mouse) [5] = biological target: mouse PDGF-BB (mouse) (UniProt P31240); test: SPR (Biacore), antibody captured on anti-mouse IgG on a CM5 chip, muBB injected at 0.25, 0.5 and 1 nM for 2 min, 10 min dissociation
human PDGF-AB (human) [6] = biological target: human PDGF-AB (human) (UniProt P04085); test: SPR (Biacore)
human PDGF-BB (human) [7] = biological target: human PDGF-BB (human) (UniProt P01127); test: SPR (Biacore)
human PDGF-BB (human) [8] = biological target: human PDGF-BB (human) (UniProt P01127); test: SPR (Biacore), antibody captured on anti-mouse IgG on a CM5 chip, huBB injected at 0.25, 0.5 and 1 nM for 2 min, 10 min dissociation
human PDGF-BB (human) [9] = biological target: human PDGF-BB (human) (UniProt P01127); test: SPR (Biacore) competition in solution: MOR8457-mIgG1 serially diluted, mixed with human PDGF-BB, 20 h at 2-8 C, mixture injected over PDGFRβ-hIgG1 captured on anti-human IgG; blocked partner PDGFRβ-hIgG1
human PDGF-AB (human) [10] = biological target: human PDGF-AB (human) (UniProt P04085); test: SPR (Biacore) sensorgrams
human PDGF-BB (human) [11] = biological target: human PDGF-BB (human) (UniProt P01127); test: SPR (Biacore) sensorgrams
rat PDGF-BB (rat) [12] = biological target: rat PDGF-BB (rat) (UniProt Q05028); test: SPR (Biacore) sensorgrams
mouse PDGF-BB (mouse) [13] = biological target: mouse PDGF-BB (mouse) (UniProt P31240); test: SPR (Biacore) sensorgrams
human PDGF-BB (human) [14] = biological target: human PDGF-BB (human) (UniProt P01127); test: SPR (Biacore), MOR8457-mIgG1 captured on anti-mouse IgG on a CM5 chip, human PDGF-BB 1 nM injected for 6 min
human PDGF-AB (human) [15] = biological target: human PDGF-AB (human) (UniProt P04085); test: SPR (Biacore 3000)
human PDGF-BB (human) [16] = biological target: human PDGF-BB (human) (UniProt P01127); test: SPR (Biacore 3000)
rat PDGF-BB (rat) [17] = biological target: rat PDGF-BB (rat) (UniProt Q05028); test: SPR (Biacore 3000)
mouse PDGF-BB (mouse) [18] = biological target: mouse PDGF-BB (mouse) (UniProt P31240); test: SPR (Biacore 3000)
human PDGF-AB (human) [19] = biological target: human PDGF-AB (human) (UniProt P04085); test: SPR (Biacore 3000), MOR8457-16 captured on anti-human IgG on a CM5 chip, Hu-PDGF-AB at 0.5 and 1 nM, 2 min injection, 10 min dissociation
human PDGF-BB (human) [20] = biological target: human PDGF-BB (human) (UniProt P01127); test: SPR (Biacore 3000), MOR8457-16 captured on anti-human IgG on a CM5 chip, Hu-PDGF-BB at 0.25, 0.5 and 1 nM, 2 min injection, 10 min dissociation
mouse PDGF-BB (mouse) [21] = biological target: mouse PDGF-BB (mouse) (UniProt P31240); test: SPR (Biacore 3000), MOR8457-16 captured on anti-human IgG on a CM5 chip, Mu-PDGF-BB at 0.25, 0.5 and 1 nM, 2 min injection, 10 min dissociation
rat PDGF-BB (rat) [22] = biological target: rat PDGF-BB (rat) (UniProt Q05028); test: SPR (Biacore 3000), MOR8457-16 captured on anti-human IgG on a CM5 chip, Rat-PDGF-BB at 0.5 and 1 nM, 2 min injection, 10 min dissociation

Amino acid sequences for entries named in this document (tags omitted). Residues count along the entry.
UniProt Q05028, residues 74-182: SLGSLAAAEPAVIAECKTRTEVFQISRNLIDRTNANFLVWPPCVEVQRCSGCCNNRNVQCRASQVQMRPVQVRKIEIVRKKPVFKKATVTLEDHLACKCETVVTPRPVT
UniProt P31240, residues 82-190: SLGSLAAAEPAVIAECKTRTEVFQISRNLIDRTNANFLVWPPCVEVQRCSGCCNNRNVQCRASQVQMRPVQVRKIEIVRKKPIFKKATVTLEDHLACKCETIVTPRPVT

Measured: binding

B1: MOR8457-mIgG1 (antibody)
heavy: EVQLVESGGGLVQPGGSLRLSCAASGFTFSSYAMSWVRQAPGKGLEWVSYISDDGSLKYYADSVKGRFTISRDNSKNTLYLQMNSLRAEDTAVYYCARHPYWYGGQLDLWGQGTLVTVSSAKTTPPSVYPLAPGSAAQTNSVTLGCLVKGYFPEPVTVTWNSGSLSSGVHTFPAVLQSDLYTLSSSVTVPSSTWPSETVTCNVAHPASSTKVDKKIVPRDCGCKPCICTVPEVSSVFIFPPKPKDVLTITLTPKVTCVVVDISKDDPEVQFSWFVDDVEVHTAQTQPREEQFNSTFRSVSELPIMHQDWLNGKEFKCRVNSAAFPAPIEKTISKTKGRPKAPQVYTIPPPKEQMAKDKVSLTCMITDFFPEDITVEWQWNGQPAENYKNTQPIMDTDGSYFVYSKLNVQKSNWEAGNTFTCSVLHEGLHNHHTEKSLSHSPGK
light: SYELTQPPSVSVAPGQTARISCSGDSLGSYFVHWYQQKPGQAPVLVIYDDSNRPSGIPERFSGSNSGNTATLTISGTQAEDEADYYCSAFTHNSDVFGGGTKLTVLQPKSSPSVTLFPPSSEELETNKATLVCTITDFYPGVVTVDWFTKVDGTPVTQGMETTQPSKQSNNKYMASSYLTLTARAWERHSSYSCQVTHEGHTVEFTKSLSRADCS
not listed: human PDGF-AB (human) [15] | human PDGF-BB (human) [16] | rat PDGF-BB (rat) [17] | mouse PDGF-BB (mouse) [18] | human PDGF-AB (human) [19] | human PDGF-BB (human) [20] | mouse PDGF-BB (mouse) [21] | rat PDGF-BB (rat) [22]
binds: all other assays above

B2: MOR8457-16 (antibody, human IgG1, lambda, V domains shown)
VH: EVQLLQSGGGLVKPGGSLRLSCAASGFTFSSYAMSWVRQAPGKGLEWVSYISDDGSLKYYADSVKGRFTISRDNSKNTLYLQMNSLRAEDTAVYYCARHPYWYGGQLDLWGQGTLVTVSS
VL: SYELTQPPSVSVSPGQTASITCSGDSLGSYFVHWYQQKPGQSPVLVIYDDSKRPSGIPERFSGSNSGNTATLTISGTQAMDEADYYCSAFTHNSDVFGGGTKLTVLG
binds: human PDGF-AB (human) [15] | human PDGF-BB (human) [16] | rat PDGF-BB (rat) [17] | mouse PDGF-BB (mouse) [18] | human PDGF-AB (human) [19] | human PDGF-BB (human) [20] | mouse PDGF-BB (mouse) [21] | rat PDGF-BB (rat) [22]

From patent publication US20140134176A1
